The text below walks through data of article PMC12754631, “Cis‐2‐decenoic acid modulates Pseudomonas aeruginosa virulence through a noncanonical transcriptional regulator” (mLife, 2025).

For at least one entry, the source does not settle the construct or the ends of the probe.

The target of this data set is FadD1Pf (Pseudomonas fluorescens Migula ATCC17518) (UniProt A0ACD4XQ35). The data set is described as follows: EMSA. As to conditions: Thermo Scientific kit binding buffer (composition, pH not stated), room temperature 20 min (30 min in Fig 3 legend), 5% polyacrylamide gel, recombinant protein, protein details: His, label: 3' biotin, probe letters rebuilt from the primers and the genome. Background: A gel shift assay detects complexes by their altered migration in electrophoresis.

Consider “TATGACTCAAGCTGACTGGAAAGCCCGACAGACTGCTAGGACGGGTATCGTACTAGGTGCATCAAACGCTGCGGTCTATTGTTAAGTGGGACTGAAATGTGCCTTTCCGGCACAACGCCAACTCTATAGAGTGGGCTGACTGGACATCTTCAGGGGTCGTCGGGCACGGGCGCATGCGCCTCGGCAGGAAGCCGGGATTCTCGGACTGCCGTACAACGTGCCGGATATCGGGTGCCGAATCCATATTTGGCTGATTGGTTAATAGTTTAAGAAGAACGTAGCGCTATGGCCTTGGTTGACGGTTTTCTTGAGCTGGAA (double strand) [lasRPf promoter]”, for which the binding result is “binds”.
